Measured data: PubChem BioAssay AID743454 (Peter MacCallum Cancer Centre, 2014)
Test: 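Search for knock-downs that restore vorinostat killing in resistant colon cancer cells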 (primary screen). Cell system: human HCT116-VR colon cancer cells, selected for vorinostat resistance. Knock-down reagent: siRNA pool against human genes, 40 nM siRNA pool. Time to read-out: vorinostat for 24 h, read-out about 72 h after transfection. Treatment: vorinostat at 2.5 µM final. Read-out: 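Two measures, CellTiter-Fluor viability and luminescent caspase 3/7 activity, each as fold change against same-plate mock wells, mean of duplicates, then screen-wide robust z-score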. Direction: viability robust z-score: higher = more viable cells than screen typical; caspase robust z-score: higher = more caspase 3/7 activity than screen typical. Call rule: 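a knock-down is a hit when classed RV1 or RV2 for lowered viability, or CA1 or CA2 for caspase activation; those lethal without drug were dropped; hits were retested singly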.
Shown is one part, drawn at random, of about 18,000 deposited reagents. 450 of them (2.5%) were called active. 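Single biological run; no consistent viability z cut-off exists, so the class columns, not z-scores, define the calls.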 Entries without a mark were called inactive.

gene symbol | PubChem SID | viability hit class | caspase hit class | viability robust z-score | caspase robust z-score
RPL7A | SID134315492 | no change | no change | -4.7 | -0.58
MYL4 | SID134316057 | no change | no change | -0.15 | 1.71
LIPI | SID152154252 | no change | no change | 0.27 | -0.48
PDILT | SID134321737 | no change | no change | -0.44 | 0.4
PAGE4 | SID134316622 | no change | no change | -1.13 | 0.52
PLPP4 | SID152155222 | no change | no change | 0.82 | 1.04
JAG2 | SID134321137 | no change | no change | -0.94 | 0.38
HOXD11 | SID134317332 | no change | no change | -1.44 | 0.7
GPR142 | SID134310988 | no change | no change | -1.88 | 4.09
ZNF830 | SID152149635 | RV2 (reduced viability) (active) | CA2 (caspase activation) | -3.5 | 6.1
RNF146 | SID134312203 | no change | no change | 0.85 | 0.43
SLC5A6 | SID135621416 | no change | no change | -0.56 | 0.72
ZNF747 | SID134318425 | no change | no change | -1.08 | 3.26
SMCO1 | SID152154498 | no change | no change | 0.38 | -0.76
CARTPT | SID134323648 | no change | no change | -0.5 | -1.1
SSX3 | SID134317348 | no change | no change | 0.45 | -1.16
VPS37B | SID134318562 | no change | no change | 1.81 | 2.7
FBXO9 | SID152155566 | no change | no change | -0.89 | -1.25
FCGR3B | SID152148715 | no change | no change | -0.33 | -0.14
NMUR1 | SID152152476 | no change | no change | 0.18 | 0.82
PLGLB2 | SID152149231 | no change | no change | 0.76 | -0.9
PARPBP | SID152156726 | no change | no change | 0.96 | -0.62
RNF214 | SID152149596 | no change | no change | -0.16 | -0.35
IRX2 | SID135625065 | no change | no change | 0.14 | -0.04
PSORS1C1 | SID134324391 | no change | no change | 0.06 | 1.32
TTLL5 | SID135622943 | no change | no change | -2.1 | -0.84
PPP6C | SID134314626 | no change | no change | 0.4 | -0.46
VXN | SID134319785 | no change | no change | -0.95 | -0.26
FCHO1 | SID134318292 | no change | no change | -0.1 | 3.23
SLC27A4 | SID135621391 | no change | no change | 0.35 | -0.18
H4C16 | SID134323038 | no change | no change | -0.74 | -0.57
GAPDH | SID152147631 | no change | no change | -0.44 | -0.74
FAM178B | SID134322717 | no change | no change | -0.16 | 0.97
PAEP | SID135621874 | no change | no change | -0.21 | -1.19
UGT3A1 | SID134313294 | no change | no change | -0.11 | -0.78
HERC4 | SID152147236 | no change | no change | -0.48 | 1.88
MPDZ | SID152150292 | no change | no change | 0.26 | -0.86
MOV10 | SID152154086 | no change | no change | -1.25 | -1.04
ASB4 | SID134317568 | no change | no change | -0.1 | -0.9
NFE2L1 | SID134323502 | no change | no change | 0.76 | -1
PKHD1 | SID152150293 | no change | no change | 0.08 | -0.26
REEP4 | SID134320340 | no change | no change | -1.4 | 0.55
RAET1L | SID135623275 | no change | no change | 0.24 | 1.06
KCNIP4 | SID152152659 | no change | no change | -0.73 | -0.64
OR1L3 | SID135625138 | no change | no change | 0.24 | -0.72
GAS2L1 | SID134321214 | no change | no change | -0.57 | -1
LIPF | SID152156538 | no change | no change | 0.74 | -0.84

Single entries from the entries so far:
Entry of PDILT [SID134321737] under “viability hit class”: no change
For “viability hit class”, RPL7A [SID134315492] is entered as no change
Under “viability hit class”, RNF146 [SID134312203] reads no change
IRX2 [SID135625065], viability hit class → no change
ZNF830 [SID152149635], viability robust z-score → -3.5 (active)
For “caspase robust z-score”, FBXO9 [SID152155566] reads -1.25

Additional results:
gene symbol | PubChem SID | viability hit class | caspase hit class | viability robust z-score | caspase robust z-score
RMI2 | SID135622991 | no change | no change | 0.12 | -0.75
SCN3B | SID135623280 | no change | no change | 0.36 | -0.77
TRPC4 | SID135621204 | no change | no change | -0.98 | 0.28
SATL1 | SID135624474 | no change | no change | 0.97 | 0.08
FMO1 | SID134314020 | no change | no change | -0.11 | -0.13
AP2A1 | SID134316760 | no change | no change | 1.06 | 1.73
GCKR | SID135622099 | no change | no change | -0.08 | 3.35
ZFHX4 | SID135623612 | no change | no change | 0.22 | -1.16
PLAAT2 | SID134324494 | no change | no change | -0.3 | 3.73
CCDC91 | SID152156539 | no change | no change | 0.77 | 0.76
RPRML | SID152153896 | no change | no change | 1.56 | 0.57
TEX12 | SID135622543 | no change | no change | -0.49 | 0.5
ARL14EP | SID134320005 | no change | no change | -0.22 | -0.52
COX6B1 | SID134317382 | no change | no change | -1.64 | 2.77
TNR | SID152154504 | no change | no change | 1.61 | -0.3
GATD3 | SID152152359 | no change | no change | 0.08 | 0.46
SEMA5A | SID135623756 | no change | no change | 0.44 | -0.73
BSCL2 | SID134320728 | no change | no change | 0.44 | 1.75
ZNF678 | SID134321902 | no change | no change | -0.6 | 5.03
KRTAP5-8 | SID135622653 | no change | no change | -0.16 | 1.71
DYRK2 | SID152156553 | no change | no change | -0.1 | -0.9
GLRB | SID134311602 | no change | no change | 0.42 | -0.61
SLC7A7 | SID152150248 | no change | no change | 0 | -0.25
PPM1B | SID135621543 | no change | no change | -0.92 | -0.72
TMED2 | SID152148355 | no change | no change | 0.19 | -0.26
ZNF786 | SID152152224 | no change | no change | 0.57 | 0.03
